Results deposited as PubChem BioAssay AID1259308 (NCATS, 2017).

- Assay: 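Genes whose loss raises luciferase production in HEK293 cells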 (primary screen)
- System: human HEK293 embryonic kidney cells stably expressing firefly luciferase (HEK-CMV-Luc2-Hygro)
- Reagent: single siRNA against human genes, 0.8 pmol siRNA per well
- Duration: 72 h
- Read-out: 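Reporter luminescence and viable-cell signal on separate replicate plates, given as percent of non-targeting control and median/MAD z-scores, plus per-cell luciferase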
- Reading the numbers: total luciferase, z-score and total luciferase, % of control: higher = more reporter protein produced; luciferase per cell, z-score: higher = more reporter output per viable cell; viable cells, % of control: higher = more viable cells
- Active means: 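Active when the median/MAD z-score for overall luciferase is greater than 3; a gene was taken forward for validation with new siRNAs if at least two of its three siRNAs passed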
- Meaning of the calls: active = raised luciferase; inactive = no rise
Shown is an unselected part of about 59,000 reagents. About 1,510 of all reagents (2.6%) count as active. 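Calls use total luciferase alone and ignore viability, so some active siRNAs may act by altering cell number.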 Entries without a mark were called inactive. The numbers tell different reagents against one gene apart.

| target | reagent no. | total luciferase, z-score | total luciferase, % of control | luciferase per cell, z-score | viable cells, % of control |
| --- | --- | --- | --- | --- | --- |
| GZMB | 1 | -0.955 | 62.9 | -1.36 | 101 |
| GZMB | 2 | 0.757 | 97 | 0.615 | 92.2 |
| GZMB | 3 | -0.4 | 73.9 | -0.932 | 106 |
| NGB | 1 | 0.0736 | 83.4 | -0.446 | 105 |
| NGB | 2 | 4.92 (active) | 180 | 3.39 | 82.3 |
| NGB | 3 | -1.25 | 57 | -0.232 | 67.7 |
| NGB | 4 | 0.723 | 96.3 | 0.894 | 85 |
| NGB | 5 | -1.33 | 55.5 | -1.23 | 85.7 |
| NGB | 6 | 0.7 | 95.8 | 1.13 | 79.5 |
| REPIN1 | 1 | 0.396 | 89.8 | 0.866 | 79.8 |
| REPIN1 | 2 | -0.485 | 72.2 | 0.162 | 77.3 |
| REPIN1 | 3 | 0.66 | 95 | 0.996 | 81.7 |
| NTF4 | 1 | 0.806 | 97.9 | 0.44 | 97.4 |
| NTF4 | 2 | -0.179 | 78.3 | 0.472 | 77.3 |
| NTF4 | 3 | -2.02 | 41.7 | -3.14 | 107 |
| TRAPPC4 | 1 | 0.144 | 84.8 | 0.674 | 79.3 |
| TRAPPC4 | 2 | 0.0696 | 83.3 | -0.14 | 96.5 |
| TRAPPC4 | 3 | -0.093 | 80 | 0.0344 | 88.6 |
| OXCT2 | 1 | 1.75 | 117 | 2.54 | 66.8 |
| OXCT2 | 2 | -0.256 | 76.8 | -0.579 | 99.9 |
| OXCT2 | 3 | -0.997 | 62.1 | -0.702 | 83.4 |
| ADAMTS12 | 1 | -2.1 | 40.1 | -1.15 | 60.7 |
| ADAMTS12 | 2 | -0.408 | 73.8 | 0.17 | 78.8 |
| ADAMTS12 | 3 | -0.639 | 69.2 | -0.869 | 97.2 |

8 consecutive records already listed, for reference:
| target | reagent no. | total luciferase, z-score | total luciferase, % of control | luciferase per cell, z-score | viable cells, % of control |
| --- | --- | --- | --- | --- | --- |
| NGB | 6 | 0.7 | 95.8 | 1.13 | 79.5 |
| REPIN1 | 1 | 0.396 | 89.8 | 0.866 | 79.8 |
| REPIN1 | 2 | -0.485 | 72.2 | 0.162 | 77.3 |
| REPIN1 | 3 | 0.66 | 95 | 0.996 | 81.7 |
| NTF4 | 1 | 0.806 | 97.9 | 0.44 | 97.4 |
| NTF4 | 2 | -0.179 | 78.3 | 0.472 | 77.3 |
| NTF4 | 3 | -2.02 | 41.7 | -3.14 | 107 |
| TRAPPC4 | 1 | 0.144 | 84.8 | 0.674 | 79.3 |

Continued:
| target | reagent no. | total luciferase, z-score | total luciferase, % of control | luciferase per cell, z-score | viable cells, % of control |
| --- | --- | --- | --- | --- | --- |
| COL12A1 | 1 | 0.308 | 88 | 0.256 | 91.9 |
| COL12A1 | 2 | -0.00431 | 81.8 | 0.681 | 76.4 |
| COL12A1 | 3 | 1.55 | 113 | 1.74 | 79.6 |
| MRPL41 | 1 | -1.43 | 53.4 | -1.44 | 87.1 |
| MRPL41 | 2 | 0.151 | 84.9 | 0.644 | 80.1 |
| MRPL41 | 3 | -0.758 | 66.8 | -0.307 | 80.9 |
| PTPN18 | 1 | -0.557 | 70.8 | -1.09 | 106 |
| PTPN18 | 2 | 1.02 | 102 | 1.43 | 78.4 |
| PTPN18 | 3 | 2.28 | 127 | 0.474 | 126 |
| GP2 | 1 | -0.0974 | 79.9 | 0.519 | 77.9 |
| GP2 | 2 | -0.126 | 79.4 | 0.54 | 77 |
| GP2 | 3 | -0.121 | 79.5 | -0.267 | 95.3 |
| SLC11A1 | 1 | -0.739 | 67.2 | -1.55 | 113 |
| SLC11A1 | 2 | 2.6 | 134 | 1.12 | 111 |
| SLC11A1 | 3 | 3.74 (active) | 156 | 2.82 | 83 |
| UBA52 | 1 | -1.58 | 50.5 | 0.28 | 52.4 |
| UBA52 | 2 | -2.66 | 29 | -0.413 | 36.1 |
| UBA52 | 3 | -1.44 | 53.3 | -1.74 | 94.3 |
| SEPTIN7P14 | 1 | 0.0288 | 82.5 | 0.153 | 88.5 |
| SEPTIN7P14 | 2 | -1.17 | 58.6 | -0.312 | 71 |
| SEPTIN7P14 | 3 | -0.874 | 64.5 | -0.712 | 86.9 |
| SAMD4B | 1 | 0.16 | 85.1 | 0.568 | 81.9 |
| SAMD4B | 2 | 0.575 | 93.3 | 0.684 | 87.1 |
| SAMD4B | 3 | 1.86 | 119 | 1.9 | 80.6 |
| SPECC1L | 1 | 3.38 (active) | 149 | 2.17 | 94.1 |
| SPECC1L | 2 | 1.22 | 106 | 0.987 | 91.4 |
| SPECC1L | 3 | 0.0365 | 82.6 | -0.482 | 105 |
| DLEC1 | 1 | 1.98 | 121 | 2.52 | 69.8 |
| DLEC1 | 2 | -0.998 | 62 | -0.768 | 84.9 |
| DLEC1 | 3 | -0.0512 | 80.9 | -0.194 | 95.1 |
| ARHGAP36 | 1 | -0.395 | 74 | -0.71 | 99.7 |
| ARHGAP36 | 2 | -1.48 | 52.5 | -1.12 | 78.7 |
| ARHGAP36 | 3 | 0.281 | 87.5 | 0.373 | 88.6 |
